This is an account of results in patent US20230167467A1, “METHODS AND COMPOSITIONS FOR THE PRODUCTION OF ISOBUTENE” (University of Alaska Anchorage, priority 2020, published 2023).

Like-named read-outs stand apart in the source and are kept apart here. For some assays here: What was measured is the transcript of the gene that encodes the chain shown.

Series [1] concerns engineered strain of E. coli. Format: cell-based.
The subject of series [2] is engineered strain of E. coli. Kind of series: M3K and MVD transcript abundance (share of RNA-seq reads aligned). The conditions noted are these: for alignment rates: Day 30 glucose samples; for sequences aligned: glucose samples at day 1; for transcripts aligning: wastewater samples at day 1; for transcript abundance: wastewater samples, after one week.
Setting [3] is: glucose samples aboard ISS, day 3 v day 7, […].
Setting [4] is: glucose samples aboard ISS, day 3 v day 14, […].
Where [5] appears, read: glucose samples aboard ISS, day 3 v day 30, […].
The mark [6] stands for this setting: glucose samples aboard ISS, day 7 v day 14, […].
Setting [7] is: glucose samples aboard ISS, day 7 v day 30, […].
Setting [8] is: glucose samples aboard ISS, pairwise test day 3 against day 1, […].
[9] abbreviates: glucose samples aboard ISS, pairwise test day 7 against day 1, […].
Setting [10] is: glucose samples aboard ISS, pairwise test day 14 against day 1, […].
Where [11] appears, read: glucose samples aboard ISS, pairwise test day 30 against day 1, […].

On to aceA, for which the “Glucose ISS time Series Tests, Day 3v7 (change in gene expression)” value in series [1] (setting [3]) was found to be 0.46 ± 0.13. Further, the “Glucose ISS time Series Tests, Day 3v14 (change in gene expression)” value in series [1] (setting [4]) came out at 0.23 ± 0.13. Besides, the “Glucose ISS time Series Tests, Day3v30 (change in gene expression)” value in series [1] (setting [5]) was −0.12 ± 0.13. Also, the “Glucose ISS time Series Tests, Day 7v14 (change in gene expression)” value in series [1] (setting [6]) is given as −0.23 ± 0.13. Also, the “Glucose ISS time Series Tests, Day 7v30 (change in gene expression)” value in series [1] (setting [7]) is −0.34 ± 0.13. For the same molecule, the “Glucose ISS time Series Tests, Day 1v3 (change in gene expression)” value in series [1] (setting [8]) is −0.63 ± 0.15. Moreover, the “Glucose ISS time Series Tests, Day 1v7 (change in gene expression)” value in series [1] (setting [9]) is on record as −0.23 ± 0.13. Moreover, the “Glucose ISS time Series Tests, Day 1v14 (change in gene expression)” value in series [1] (setting [10]) is listed as −0.46 ± 0.13. In series [1] (setting [11]), the “Glucose ISS time Series Tests, Day 1 v30 (change in gene expression)” value is −0.57 ± 0.13.
Regarding aceK, in series [1], the “Glucose ISS time Series Tests, Day 1v3 (change in gene expression)” value came out at 0.06 ± 0.23; the “Glucose ISS time Series Tests, Day 1v7 (change in gene expression)” value is 0.16 ± 0.20; the “Glucose ISS time Series Tests, Day 1v14 (change in gene expression)” value is on record as 0.92 ± 0.20; the “Glucose ISS time Series Tests, Day 1 v30 (change in gene expression)” value came out at 0.21 ± 0.20. Moreover, in series [1], the “Glucose ISS time Series Tests, Day 3v7 (change in gene expression)” value was determined as 0.16 ± 0.20; the “Glucose ISS time Series Tests, Day 3v14 (change in gene expression)” value came to 0.92 ± 0.20; the “Glucose ISS time Series Tests, Day3v30 (change in gene expression)” value stood at 0.21 ± 0.20; the “Glucose ISS time Series Tests, Day 7v14 (change in gene expression)” value was found to be 0.76 ± 0.20. For the same molecule, in series [1], the “Glucose ISS time Series Tests, Day 7v30 (change in gene expression)” value is 0.05 ± 0.20.
As to fadH, the “Glucose ISS time Series Tests, Day 3v7 (change in gene expression)” value in series [1] (setting [3]) was 0.56 ± 0.14. Further, the “Glucose ISS time Series Tests, Day 3v14 (change in gene expression)” value in series [1] (setting [4]) is reported as −0.14 ± 0.14. In series [1] (setting [5]), the “Glucose ISS time Series Tests, Day3v30 (change in gene expression)” value is 0.63 ± 0.13. The “Glucose ISS time Series Tests, Day 7v14 (change in gene expression)” value in series [1] (setting [6]) is listed as −0.70 ± 0.13. In series [1] (setting [7]), the “Glucose ISS time Series Tests, Day 7v30 (change in gene expression)” value amounted to 0.07 ± 0.13. Besides, the “Glucose ISS time Series Tests, Day 1v3 (change in gene expression)” value in series [1] (setting [8]) was found to be 0.05 ± 0.17. Further, the “Glucose ISS time Series Tests, Day 1v7 (change in gene expression)” value in series [1] (setting [9]) came out at 0.63 ± 0.14. In addition, the “Glucose ISS time Series Tests, Day 1v14 (change in gene expression)” value in series [1] (setting [10]) is reported as −0.08 ± 0.15. The “Glucose ISS time Series Tests, Day 1 v30 (change in gene expression)” value in series [1] (setting [11]) is 0.70 ± 0.14.
With flgA, the “Glucose ISS time Series Tests, Day 3v7 (change in gene expression)” value in series [1] (setting [3]) is −0.04 ± 0.20. Further, the “Glucose ISS time Series Tests, Day 3v14 (change in gene expression)” value in series [1] (setting [4]) is 0.55 ± 0.18. Also, the “Glucose ISS time Series Tests, Day3v30 (change in gene expression)” value in series [1] (setting [5]) was 0.28 ± 0.19. The “Glucose ISS time Series Tests, Day 7v14 (change in gene expression)” value in series [1] (setting [6]) is given as 0.59 ± 0.18. In series [1] (setting [7]), the “Glucose ISS time Series Tests, Day 7v30 (change in gene expression)” value amounted to 0.32 ± 0.19. Also, in series [1] (setting [8]), the “Glucose ISS time Series Tests, Day 1v3 (change in gene expression)” value is 0.54 ± 0.23. Further, in series [1] (setting [9]), the “Glucose ISS time Series Tests, Day 1v7 (change in gene expression)” value is 0.52 ± 0.21. Besides, the “Glucose ISS time Series Tests, Day 1v14 (change in gene expression)” value in series [1] (setting [10]) is given as 1.11 ± 0.20. Further, the “Glucose ISS time Series Tests, Day 1 v30 (change in gene expression)” value in series [1] (setting [11]) came to 0.84 ± 0.20.

B1: MVD: mevalonate diphosphate decarboxylase of Saccharomyces cerevisiae, enzyme and gene/transcript (optimized gene SEQ ID NO:2) (protein)
chain: MTVYTASVTAPVNIATLKYWGKRDTKLNLPTNSSISVTLSQDDLRTLTSAATAPEFERDTLWLNGEPHSIDNERTQNCLRDLRQLRKEMESKDASLPTLSQWKLHIVSENNFPTAAGLASSAAGFAALVSAIAKLYQLPQSTSEISRIARKGSGSACRSLFGGYVAWEMGKAEDGHDSMAVQIADSSDWPQMKACVLVVSDIKKDVSSTQGMQLTVATSELFKERIEHVVPKRFEVMRKAIVEKDFATFAKETMMDSNSFHATCLDSFPPIFYMNDTSKRIISWCHTINQFYGETIVAYTFDAGPNAVLYYLAENESKLFAFIYKLFGSVPGWDKKFTTEQLEAFNHQFESSNFTARELDLELQKDVARVILTQVGSGPQETNESLIDAKTGLPKE
modifications: optimized gene; MVD optimized gene sequence
With B1, in series [2], the alignment rates came to 0.83%, the sequences aligned is listed as 1.87%, the transcripts aligning came to 1.98% and the transcript abundance stood at 0.81%.

B2: M3K: mevalonate-3-kinase of Picrophilus torridus, enzyme and gene/transcript (optimized gene SEQ ID NO:1) (protein)
chain: MENYNVKTRAFPTIGIILLGGISDKKNRIPLHTTAGIAYTGINNDVYTETKLYVSKDEKSYIDGKEIDLNSDRSPSKVIDKFKHEILMRVNLDDENNLSIDSRNFNILSGSSDSGAAALGECIESIFEYNINIFTFENDLQRISESVGRSLYGGLTVNYANGRESLTEPLLEPEAFNNFTIIGAHFNIDRKPSNEIHENIIKHENYRERIKSAERKAKKLEELSRNANIKGIFELAESDTVEYHKMLHDVGVDIINDRMENLIERVKEMKNNFWNSYIVTGGPNVFVITEKKDVDKAMEGLNDLCDDIRLLKVAGKPQVISKNF
modifications: optimized gene; M3K optimized gene
In series [2], B2 displayed an alignment rates of 0.93%, a sequences aligned of 2.11%, a transcripts aligning of 2.2% and a transcript abundance of 0.88%.
